From patent US20180339066A1, “Methods and Compositions for Enhancing Transduction Efficiency of Retroviral Vectors” (The Scripps Research Institute, priority 2013, published 2018)
At least one compound was matched to its structure with a doubt left.

Key:
NSG-repopulating cells = assay: NSG mouse reconstitution with transduced cord blood CD34+ cells (long-term engraftment); assay type: in vivo, human
Method: (§1) Colony forming assay, NSG mouse reconstitution, and serial transplantation. For colony forming assays, transduced cord blood CD34^+ HSPCs were counted and 100 cells were seeded in 1.5 ml methocult4434 (StemCell Technologies) in 30 mm dishes in triplicate. Total BFU-E, CFU-GM, CFU-M, and CFU-GEMM colonies, as well as GFP+ colonies, were counted 16-18 days after plating using a fluorescent microscope. […] Mice were bled every 4 weeks starting from 8 weeks post injection, and sacrificed at 19 weeks to assess engraftment and GFP expression in the bone marrow, spleen, and thymus by flow cytometry. For serial transplantation, primary recipients were sacrificed at 12 weeks post injection, and bone marrow cells from both femurs of one mouse were injected into two irradiated secondary recipients, which were again sacrificed at 12 weeks post injection for flow cytometric analysis of bone marrow and spleen. NSG mice were maintained at the Scripps Research Institute Molecular and Experimental Medicine animal facility.
To determine whether primitive HSCs in the heterogeneous CD34^+ population are transduced in the presence of rapamycin, we tested the ability of transduced cord blood CD34^+ cells to engraft irradiated NSG mice. A fraction of transduced cells was assessed in parallel liquid culture and colony forming assays. […] Mice were sacrificed 19 weeks after injection to assess long-term engraftment. […] This four-fold transduction enhancement in NSG-repopulating cells was more pronounced than in parallel liquid culture or CFU assay (FIG. 2C), indicating preferential transduction of primitive HSCs in the presence of rapamycin.

cord blood CD34+ cells [1] = assay: Cell cycle assay; assay type: cell-based, human; conditions: 20 μg/ml rapamycin, 6 hours
cord blood CD34+ cells [2] = assay: Colony forming assay and parallel liquid culture of transduced cord blood CD34+ cells; assay type: cell-based, human; conditions: stimulated cord blood CD34+ cells, MOI=25
Method: as §1
To determine whether primitive HSCs in the heterogeneous CD34^+ population are transduced in the presence of rapamycin, we tested the ability of transduced cord blood CD34^+ cells to engraft irradiated NSG mice. A fraction of transduced cells was assessed in parallel liquid culture and colony forming assays. […]

[3] = system: stimulated cord blood CD34+ cells; assay: Virion entry assay (BLAM-Vpr); assay type: cell-based, human
[4] = system: primitive HSCs (serial repopulating cells); assay: Serial NSG mouse transplantation of transduced cord blood CD34+ cells; assay type: in vivo, human; conditions: 12 weeks post injection, bone marrow
Method: as §1
To stringently establish transduced cells as primitive HSCs, we carried out serial NSG mouse transplantation with cord blood CD34^+ cells transduced with or without rapamycin. […] Bone marrow cells of secondary recipients were again analyzed 12 weeks post injection.

CO[C@H]1C[C@@H]2CC[C@@H](C)[C@@](O)(O2)C(=O)C(=O)N2CCCC[C@H]2C(=O)O[C@H]([C@H](C)C[C@@H]2CC[C@@H](O)[C@H](OC)C2)CC(=O)[C@H](C)/C=C(\C)[C@@H](O)[C@@H](OC)C(=O)[C@H](C)C[C@H](C)/C=C/C=C/C=C/1C [rapamycin]
GFP expression in human CD45+ cells in mouse bone marrow, dose dependence (NSG-repopulating cells; 0, 10, 20 μg/ml rapamycin): significantly increased in a dose-dependent manner | enhancement of GFP expression over the control group (NSG-repopulating cells; 20 μg/ml rapamycin, human CD45+ cells in mouse bone marrow): four-fold enhancement | GFP expression across myeloid and lymphoid lineages (NSG-repopulating cells; all human hematopoietic lineages, 19 weeks): Increased GFP expression | mean fluorescent intensity in human CD45+ cells (NSG-repopulating cells; lesser degree than % GFP, only significant between 0 and 10 μg/ml): increased | cell cycle distribution by DNA and RNA content vs control (cord blood CD34+ cells [1]): no change | GFP expression in colonies or liquid culture cells (cord blood CD34+ cells [2]): enhanced | vector entry into the cytoplasm [3]: dose-dependent increase | GFP positivity of human cells in secondary recipients [4]: high levels of GFP positivity
